Measured values published in publication PMC8121353.
These are yes or no findings as the source states them, for the method shown. In cells and extracts the contact can be indirect. Some entries that bind do so weakly or less than the wild type.

Amino acid sequences for entries named in this document (tags omitted). Residues count along the entry.
UniProt Q04206, residues 190-291: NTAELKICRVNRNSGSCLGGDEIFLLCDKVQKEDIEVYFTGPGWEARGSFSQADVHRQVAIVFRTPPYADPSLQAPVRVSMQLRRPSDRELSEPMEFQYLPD
UniProt P19838, residues 247-352: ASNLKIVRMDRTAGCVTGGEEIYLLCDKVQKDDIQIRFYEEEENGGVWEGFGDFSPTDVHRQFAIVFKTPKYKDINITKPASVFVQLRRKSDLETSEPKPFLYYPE

Target: p65-mKGN (p65 residues 190-291 fused to the N-terminal fragment of monomeric Kusabira-Green) (UniProt Q04206)
Assay: split reporter; BiFC reconstitution: mKGC fusion (p50-mKGC, or cDNA of each trapped fusion in pPB-PCMV-IRES-PuroR) introduced into the bait strain HeLa-p65-mKGN; mKG fluorescence by flow cytometry

p50 (residues 247-352)-mKGC (from UniProt P19838 247-352) (domain or fragment)
binding: binds
